Our source for the binding values is article PMC11166998.

By UniProt entry, the sequences of proteins in these tests, tags left out.
UniProt Q969H0: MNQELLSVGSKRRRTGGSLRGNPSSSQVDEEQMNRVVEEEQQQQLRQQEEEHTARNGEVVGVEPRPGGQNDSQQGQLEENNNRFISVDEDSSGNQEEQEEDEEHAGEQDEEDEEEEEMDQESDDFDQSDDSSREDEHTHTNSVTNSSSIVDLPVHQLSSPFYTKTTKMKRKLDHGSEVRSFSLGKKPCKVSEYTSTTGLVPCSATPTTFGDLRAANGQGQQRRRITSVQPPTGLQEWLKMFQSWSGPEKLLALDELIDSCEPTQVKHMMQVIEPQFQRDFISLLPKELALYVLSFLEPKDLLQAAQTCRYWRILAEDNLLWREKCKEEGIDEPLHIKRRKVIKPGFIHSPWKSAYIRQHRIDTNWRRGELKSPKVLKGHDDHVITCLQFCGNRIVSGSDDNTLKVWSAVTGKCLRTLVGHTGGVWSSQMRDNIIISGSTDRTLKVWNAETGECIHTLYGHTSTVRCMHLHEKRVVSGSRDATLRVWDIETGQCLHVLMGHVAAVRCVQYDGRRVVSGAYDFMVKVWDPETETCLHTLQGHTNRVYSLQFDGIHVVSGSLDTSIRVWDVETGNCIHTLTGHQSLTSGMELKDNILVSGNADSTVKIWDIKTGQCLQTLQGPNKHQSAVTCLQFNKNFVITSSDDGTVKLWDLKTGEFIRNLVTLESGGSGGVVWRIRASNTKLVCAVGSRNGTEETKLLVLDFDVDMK

No constants are given. Whether binding was seen depends on the method and setting. In cells and extracts the contact can be indirect. Some results given as binding are weak or reduced against the parent protein; the word gives no strength.

In this assay the target is T1, AGEs receptor 1 (AGER1) (human (endogenous in HAVSMCs)) (UniProt P39656).
T1 sequence: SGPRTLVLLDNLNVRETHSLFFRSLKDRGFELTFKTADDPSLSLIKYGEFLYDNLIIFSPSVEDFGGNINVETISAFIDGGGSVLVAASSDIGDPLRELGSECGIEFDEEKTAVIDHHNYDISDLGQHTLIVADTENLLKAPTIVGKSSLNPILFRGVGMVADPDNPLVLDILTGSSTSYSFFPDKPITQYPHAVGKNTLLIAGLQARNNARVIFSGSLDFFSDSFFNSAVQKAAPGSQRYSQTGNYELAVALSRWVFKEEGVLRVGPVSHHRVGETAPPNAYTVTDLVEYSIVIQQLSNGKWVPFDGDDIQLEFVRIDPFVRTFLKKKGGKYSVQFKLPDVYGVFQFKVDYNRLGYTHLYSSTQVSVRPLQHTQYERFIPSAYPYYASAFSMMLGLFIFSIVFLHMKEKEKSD
Briefly: co-IP; endogenous proteins extracted from HAVSMCs, IP Assay kit (Proteintech), antibodies 1 µg/mg protein, immunoblotting; cells with or without AGE (200 µg/ml) and MG132 (10 µM) for 24 h; which of the two was precipitated is not told.

Turning to “F-box and WD repeat domain-containing 7 (FBXW7) (from UniProt Q969H0 1-707)”, the binding entry is given as “binds”.
